US20120034212A1 (AstraZeneca / MedImmune, published 2012)
These are yes or no findings as the source states them, for the method shown. Some entries that bind do so weakly or less than the wild type.

The chains behind the UniProt entries cited, without tags or fusion partners. Where a name states a change or a piece, a line headed by the entry shows the natural chain unless it says otherwise. Residues count along the entry.
UniProt P79341, residues 28-212: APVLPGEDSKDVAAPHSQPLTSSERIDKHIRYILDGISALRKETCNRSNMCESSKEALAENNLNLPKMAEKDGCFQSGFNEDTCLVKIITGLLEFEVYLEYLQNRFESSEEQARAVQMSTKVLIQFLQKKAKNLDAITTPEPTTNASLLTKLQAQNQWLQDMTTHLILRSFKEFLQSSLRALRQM
UniProt P05231: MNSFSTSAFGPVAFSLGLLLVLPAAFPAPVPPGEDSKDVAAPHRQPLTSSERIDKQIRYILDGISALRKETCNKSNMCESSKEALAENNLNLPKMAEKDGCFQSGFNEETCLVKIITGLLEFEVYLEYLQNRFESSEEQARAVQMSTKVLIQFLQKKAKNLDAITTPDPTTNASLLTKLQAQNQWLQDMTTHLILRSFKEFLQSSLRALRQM

What was measured:
[1] = biological target: cynomolgus IL-6 (cynomolgus) (UniProt P79341); assay: assay not named; Example 1 summarises WO 2008/065378
recombinant human IL-6 [2] = biological target: T1, recombinant human IL-6 (human, UniProt P05231 30-212); assay: as above
recombinant human IL-6 [3] = biological target: T1, recombinant human IL-6; assay: ELISA, E. coli derived recombinant IL-6 as capture reagent (FIG. 2)
recombinant human IL-6 [4] = biological target: T1, recombinant human IL-6; assay: ELISA, rhuIL-6 as capture reagent

Measured: binding

B1: Antibody 18 (antibody, V domains shown)
VH: EVQLVESGGGLVQPGGSLRLSCAASGFTISSNYMIWVRQAPGKGLEWVSDLYYYAGDTYYADSVKGRFTMSRDISKNTVYLQMNSLRAEDTAVYYCARWADDHPPWIDLWGRGTLVTVSS
VL: DIQMTQSPSTLSASVGDRVTITCRASQGISSWLAWYQQKPGKAPKVLIYKASTLESGVPSRFSGSGSGTEFTLTISSLQPDDFATYYCQQSWLGGSFGQGTKLEIK
notes: Human anti-IL-6 IgG1 with a wild type Fc region; It is the parent of Antibody 18E; also called Ab 18
binds: all assays above
